For the assay, the target named is ZeGL3 (pGBKT7-ZeGL3) (Zinnia elegans). Description: two-hybrid; ZeMYB9 in pGADT7 (AD), ZeGL3 in pGBKT7 (BD); yeast strain Y2H Gold; growth on SD/-His-Leu-Trp medium at 30°C for 4 days.

These are yes or no findings as the source states them, for the method shown. A result given as binding can be weak or reduced; the word gives no strength.

This passage reports binding results from PMC9623174.

As to “ZeMYB9 (pGADT7-ZeMYB9) (from UniProt A0A977TEB2)”, the binding entry is listed as “binds”.
